# Primary screen of a compound library

Amino acid sequences for entries named in this document (tags omitted). Residues count along the entry.
UniProt P9WNZ1, whole entry: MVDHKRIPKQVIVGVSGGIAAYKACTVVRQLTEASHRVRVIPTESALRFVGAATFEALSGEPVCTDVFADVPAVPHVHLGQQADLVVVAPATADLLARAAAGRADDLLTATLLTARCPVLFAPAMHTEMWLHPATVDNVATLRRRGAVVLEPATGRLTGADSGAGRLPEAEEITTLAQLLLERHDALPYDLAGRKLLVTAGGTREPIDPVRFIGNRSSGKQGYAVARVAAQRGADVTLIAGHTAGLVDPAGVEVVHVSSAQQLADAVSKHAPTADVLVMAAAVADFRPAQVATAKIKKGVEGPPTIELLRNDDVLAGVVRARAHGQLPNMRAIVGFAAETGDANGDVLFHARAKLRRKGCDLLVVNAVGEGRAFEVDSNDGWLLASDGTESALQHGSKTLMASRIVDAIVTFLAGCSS
UniProt Q8IDJ8, 1-583: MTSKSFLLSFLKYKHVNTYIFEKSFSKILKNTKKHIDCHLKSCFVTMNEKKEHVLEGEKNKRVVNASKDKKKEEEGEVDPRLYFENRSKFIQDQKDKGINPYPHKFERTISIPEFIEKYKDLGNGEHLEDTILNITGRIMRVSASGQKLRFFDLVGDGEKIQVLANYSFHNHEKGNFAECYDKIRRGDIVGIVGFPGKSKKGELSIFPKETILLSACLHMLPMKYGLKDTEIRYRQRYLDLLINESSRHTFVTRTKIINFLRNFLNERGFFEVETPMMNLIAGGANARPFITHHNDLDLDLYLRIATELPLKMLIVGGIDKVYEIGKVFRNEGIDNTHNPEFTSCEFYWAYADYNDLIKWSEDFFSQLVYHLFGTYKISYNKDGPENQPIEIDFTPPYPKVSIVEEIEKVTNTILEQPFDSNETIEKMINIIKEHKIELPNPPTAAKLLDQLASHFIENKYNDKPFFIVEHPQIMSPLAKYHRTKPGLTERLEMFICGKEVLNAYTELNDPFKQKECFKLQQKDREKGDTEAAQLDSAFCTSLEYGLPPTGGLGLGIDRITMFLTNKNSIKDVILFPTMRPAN
UniProt P9WFT3, whole entry: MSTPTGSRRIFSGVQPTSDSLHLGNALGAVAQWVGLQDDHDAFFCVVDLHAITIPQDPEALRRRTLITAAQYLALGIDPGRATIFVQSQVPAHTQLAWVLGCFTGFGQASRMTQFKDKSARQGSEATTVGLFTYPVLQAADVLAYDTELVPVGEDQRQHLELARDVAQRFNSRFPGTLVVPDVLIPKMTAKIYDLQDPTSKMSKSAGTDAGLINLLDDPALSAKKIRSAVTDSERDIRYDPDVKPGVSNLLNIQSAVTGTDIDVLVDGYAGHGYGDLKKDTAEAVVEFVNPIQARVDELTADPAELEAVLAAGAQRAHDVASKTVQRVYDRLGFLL
UniProt I6X8D2, whole entry: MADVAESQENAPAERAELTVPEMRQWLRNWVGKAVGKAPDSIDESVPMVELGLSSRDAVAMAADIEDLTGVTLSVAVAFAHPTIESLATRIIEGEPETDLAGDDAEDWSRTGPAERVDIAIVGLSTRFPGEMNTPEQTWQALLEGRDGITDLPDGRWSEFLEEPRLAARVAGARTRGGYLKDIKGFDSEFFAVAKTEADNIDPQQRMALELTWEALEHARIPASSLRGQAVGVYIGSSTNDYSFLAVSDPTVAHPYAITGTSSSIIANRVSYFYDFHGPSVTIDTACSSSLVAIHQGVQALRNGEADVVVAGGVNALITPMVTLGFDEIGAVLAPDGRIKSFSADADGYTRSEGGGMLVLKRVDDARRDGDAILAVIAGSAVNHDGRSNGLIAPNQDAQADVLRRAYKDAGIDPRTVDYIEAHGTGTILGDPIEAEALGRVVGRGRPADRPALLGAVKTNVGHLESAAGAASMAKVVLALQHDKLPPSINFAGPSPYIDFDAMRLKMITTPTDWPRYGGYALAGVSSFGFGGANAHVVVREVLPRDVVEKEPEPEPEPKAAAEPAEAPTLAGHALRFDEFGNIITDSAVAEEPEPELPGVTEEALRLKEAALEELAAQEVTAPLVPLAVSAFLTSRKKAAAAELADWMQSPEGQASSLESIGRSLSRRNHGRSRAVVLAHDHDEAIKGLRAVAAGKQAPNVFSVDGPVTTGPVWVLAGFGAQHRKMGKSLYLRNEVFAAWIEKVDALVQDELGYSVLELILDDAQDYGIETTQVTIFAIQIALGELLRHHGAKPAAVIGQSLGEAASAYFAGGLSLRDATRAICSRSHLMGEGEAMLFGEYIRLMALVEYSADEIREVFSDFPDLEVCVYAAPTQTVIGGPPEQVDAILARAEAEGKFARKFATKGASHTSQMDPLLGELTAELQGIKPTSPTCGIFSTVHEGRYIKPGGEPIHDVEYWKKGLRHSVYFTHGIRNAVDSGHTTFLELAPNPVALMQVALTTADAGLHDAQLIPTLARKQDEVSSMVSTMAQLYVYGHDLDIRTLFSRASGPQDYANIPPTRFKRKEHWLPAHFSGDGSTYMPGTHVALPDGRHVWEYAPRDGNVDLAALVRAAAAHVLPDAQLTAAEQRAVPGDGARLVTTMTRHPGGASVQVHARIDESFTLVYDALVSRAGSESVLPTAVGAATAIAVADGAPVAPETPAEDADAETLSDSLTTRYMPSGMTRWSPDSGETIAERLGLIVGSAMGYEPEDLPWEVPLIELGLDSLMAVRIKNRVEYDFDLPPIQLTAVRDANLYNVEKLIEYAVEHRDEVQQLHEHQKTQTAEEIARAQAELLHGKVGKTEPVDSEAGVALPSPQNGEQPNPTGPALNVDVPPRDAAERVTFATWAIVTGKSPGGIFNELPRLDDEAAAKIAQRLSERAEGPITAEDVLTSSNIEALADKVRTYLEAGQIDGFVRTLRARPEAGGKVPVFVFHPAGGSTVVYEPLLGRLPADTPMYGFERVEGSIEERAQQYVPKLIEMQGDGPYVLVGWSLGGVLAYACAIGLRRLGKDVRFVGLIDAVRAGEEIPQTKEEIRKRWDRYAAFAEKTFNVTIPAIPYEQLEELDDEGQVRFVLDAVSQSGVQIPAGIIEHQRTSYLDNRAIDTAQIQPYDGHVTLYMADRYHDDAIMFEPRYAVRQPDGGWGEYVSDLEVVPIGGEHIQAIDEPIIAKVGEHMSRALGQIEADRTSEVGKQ

Source: ChEMBL document CHEMBL3988442, “University of Dundee, Small-Polar-MMV Screening Library” (2021).

Values are the deposited “Percent Effect”, in %. The controls that fix the scale are not given in the record; negative values are as filed. Compounds were drawn at random from those tested, without regard to their results. A dash means the value is not listed here; it may have been measured.

CoaBC: 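Enzyme assay of CoaBC with a phosphate dye (Biomol Green) read at 650 nm. Target: Coenzyme A biosynthesis protein CoaBC, Mycobacterium tuberculosis (UniProt P9WNZ1). Tested at 30 µM. Higher reads as stronger inhibition, judged from the few compounds that gave an IC50. Most strong results did not repeat in a second test. About 67,000 compounds were tested under these conditions; 0.06% (about 40) showed 50% or more at least once.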
PfKRS1: 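Enzyme assay of the cytosolic lysyl-tRNA synthetase in 384-well plates, read by luminescence. Target: Lysine-tRNA ligase, Plasmodium falciparum 3D7 (UniProt Q8IDJ8). Compounds at 30 µM. Direction is inferred from only a few compounds that gave an IC50; most scored high, so higher reads as stronger inhibition. Of about 69,000 compounds tested this way, about 49 (0.071%) reached 50% or more in at least one test.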
Toxoplasma: 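Assay of Toxoplasma gondii numbers, read through their beta-galactosidase reporter with a colour substrate. Tested at 10 µM. The record gives no direction; the compounds picked for IC50 retests had high values, so higher reads as fewer parasites. Of about 67,000 compounds tested this way, about 260 (0.38%) reached 50% or more in at least one test.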
MtTrpRS: 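Enzyme assay of tryptophanyl-tRNA synthetase; the read-out is not stated. Target: Tryptophan-tRNA ligase, Mycobacterium tuberculosis (UniProt P9WFT3). Concentration: 10 µM. Direction is not recorded; retested compounds ran higher, which suggests that high means inhibition. About 65,000 compounds were tested under these conditions; 0.098% (about 64) showed 50% or more at least once.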
Pks13 thioesterase: 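Enzyme assay of the thioesterase domain of polyketide synthase 13; the read-out is not stated. Target: Polyketide synthase Pks13, Mycobacterium tuberculosis (UniProt I6X8D2). Compounds at 30 µM. The record gives no direction; the compounds picked for IC50 retests had high values, so higher reads as stronger inhibition. Of about 67,000 compounds tested this way, about 300 (0.46%) reached 50% or more in at least one test.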

Compound,CoaBC,PfKRS1,Toxoplasma,MtTrpRS,Pks13 thioesterase
O=C(Cc1ccncc1)N(CCO)CCSc1ccc(Cl)cc1,1.788,5.303,-12.18,2.225,-23.93
CC(C)c1noc(CCNC(=O)C2COc3ccccc3C2)n1 (stereo not given),5.627,1.444,12.09,3.307,11
O=C(Nc1c(N2CCCC2)cccc1N1CCCC1)c1cnsn1,9.6,-0.7734,7.031,-3.488,-11.95
CCOc1cccc(CNC(=O)N2CCC(Cc3cnn(C)c3)C2)c1 (stereo not given),6.905,1.601,-14.77,2.392,-0.4983
c1ccc2nc(N3CCCC(Cn4cncn4)C3)cnc2c1 (stereo not given),3.984,4.125,-16.28,-4.68,0.9755
COc1ccc(C(=O)N2CCOCC2c2[nH]ncc2C)cc1F (stereo not given),-1.84,1.152,-20.34,-4.699,14.3
Cc1c(CNCCCOc2cccnc2)c2ccccc2n1CC(N)=O,-11.11,6.867,-10.87,-7.006,-20.81
CCc1cc(NCCNC(=O)c2cccnc2)n2nc(C)c(C)c2n1,14.95,3.38,1.796,6.76,-0.2772
CCc1nc2n(n1)CCCC2NC(=O)Nc1ccc(F)cc1C#N (stereo not given),8.468,8.478,4.562,1.816,-11.14
Cc1noc(C)c1C(=O)NCCN1CCOCC1,-4.091,7.018,4.157,2.974,-20.82
CN(Cc1ccc(F)cc1)[C@@H]1CN(S(C)(=O)=O)C[C@H]1O,-0.7177,-0.3417,-4.351,-1.693,-5.856
Cn1cc(C2CC(=O)NC23CCN(C(=O)Cc2ccccn2)CC3)cn1.O=C(O)C(F)(F)F (stereo not given),-,-,3.499,-,-
O=C(c1cnc(-c2cccs2)s1)N1CCCC(n2ccnc2)C1 (stereo not given),3.354,-1.763,-15.26,-1.846,-6.361
CCC1CN(C(=O)c2ncccc2O)CCC(=O)N1Cc1ccccc1 (stereo not given),-1.576,6.477,3.913,-0.9428,-
CCN(C(=O)Cc1ccc(NC(=O)NC2CC2)cc1)c1ccccc1,12,1.516,2.806,-4.122,-7.635
Cc1cc(C(=O)N[C@H]2COC[C@@H]2N2CCOCC2)c2ccc(F)cc2n1,6.452,-0.6797,-8.532,-7.796,-26.57
COCCC(=O)N(Cc1cccnc1)CC1CCN(C2CCCC2)CC1,2.808,3.457,3.15,1.175,-23.06
COc1cc(N2CCC3(CC2)CNC(=O)CO3)ncn1,4,3.368,-20.83,-,9.258
CC(CNC(=O)N1CCN(Cc2ccon2)CC1)N(C)C1CC1 (stereo not given),6.198,1.098,0.814,2.679,-11.75
CN(C)CCNCC1(O)CCCN(Cc2cccc(F)c2F)C1=O (stereo not given),-18.35,-1.856,3.984,9.687,5.877
CC(=O)N1CCCCC[C@@H]2[C@@H]1[C@H](c1cccc(F)c1)CN2C(=O)C1CC1,-5.519,0.4553,-,-4.838,-2.745
CCc1nnc(CN2CCC(C3CCCCCN3C(=O)C3CC3)CC2)o1 (stereo not given),-2.4,0.7734,-8.846,-0.08944,-4.14
Cc1cccnc1N1CCN(C(=O)CCc2ccccn2)CC1,2.457,2.874,-5.89,1.667,-4.01
COCC(=O)N1CCCn2c(CN3CCCCC3)nnc2C1.O=C(O)C(F)(F)F,-,-,10.81,-,-
CN(c1ncc(C(=O)Nc2ccccc2)c(N)n1)C1CCCCC1,-0.8783,3.89,-0.523,-3.076,-24.24
Cc1cc(C)n2ncc(CN3CCC(Cn4cc(CO)nn4)CC3)c2n1,4.132,2.498,0.8943,-1.149,-10.42
Cc1nc(COc2ccc(OC3CCCCNC3=O)cc2)oc1C (stereo not given),7.283,-0.2142,-4.629,-11.84,3.465
CCc1nc(Cn2ccnc2-c2nccn2C)no1,8.871,7.658,-12.42,-10.91,-16.92
O=C1COC2(CCN(Cc3ccsc3)CC2)CN1,4.762,4.419,-,1.521,10.54
O=C(c1cc2c(s1)CCC2)N1CCC(c2cnccn2)CC1,9.557,-0.3509,9.69,-3.825,-2.813
COC(=O)c1cc2c(OC)c(OC)c(OC)cc2[nH]1,-0.3645,1.472,-,1.286,-4.029
Cc1cnn(CCC(=O)N2CCN(c3nccs3)CC2)c1,-2.362,-0.03946,19.2,22.46,-16.37
CC(C)C1=NOC(c2nc(-c3cccc(Cl)c3)no2)C1 (stereo not given),-6.957,-0.7677,14.28,-14.86,28.75
CCCNC(=O)C(C)Nc1cccc(Oc2ccc(C#N)cn2)c1 (stereo not given),-4.752,-1.617,3.459,9.883,1.33
O=C(c1ccc2nncn2c1)N1CCCC1c1noc(C2CC2)n1 (stereo not given),1.085,-0.2501,11.75,-0.5623,-29.46
[H][C@]12CC[C@]([H])(CN(S(C)(=O)=O)C1)N(C(=O)c1csc(NC)n1)C2,-,-,2.041,-,-
CCn1nc(C(C)C)cc1C(=O)N1CCOc2ccc(OC)cc21,4.752,6.066,-4.89,2.341,-5.14
CNc1ccc(CC2CCCN(C(=O)c3cnccn3)C2)nn1 (stereo not given),0,4.287,0.8331,-,4.643
CC(C)c1nnc2n1CCN(Cc1nc(-c3ccoc3)no1)C2,0.2632,-3.514,0.3912,2.406,-30.27
CO[C@H]1CN(Cc2ccc(F)cc2)CC[C@@]12CCCO2,-1.217,1.836,6.821,-1.797,7.269
NCCn1nc(C2CCN(Cc3ccccc3Cl)C2)c2nccnc21 (stereo not given),10.29,1.727,-4.179,-,-8.48
CC(C)n1ccnc1CN1CCOC(C)(C(=O)N2CCOCC2)C1 (stereo not given),2.663,4.125,-12.1,-,12.9
O=C(O)C(F)(F)F.[H][C@@]12COC[C@]1([H])[C@@H](OCC(=O)N(C)C)CN2Cc1ccsc1,-,-,16.02,-,-
O=C1CCCN1Cc1ncn2c1CN(C(=O)Cc1ccccc1)CCC2,7.407,1.181,16.04,-3.721,-11.09
CSc1ncccc1C(=O)N1CCC(c2nc3c(C)cccc3[nH]2)CC1,18.18,2.998,-4.704,1.574,-9.567
COc1ccc(CC(=O)N2CCCC(n3cccn3)C2)cc1F (stereo not given),1.305,3.776,-4.565,-7.688,-6.212
CC(C)Nc1nc2c(cc1C(=O)NCC1CC1)CCN(S(C)(=O)=O)CC2,3.752,2.921,-,5.542,85.61
O=C(NCCNc1ccccn1)Nc1cc(C(F)(F)F)c[nH]c1=O,8.593,-0.2812,7.229,0.5805,1.013
NC(=O)N1CCCC(C(=O)Nc2cccc(Cl)c2)C1 (stereo not given),2.917,7.269,4.071,-2.062,-36.49
Cc1nc(CN2CCC3(CCCN(Cc4cnn(C)c4)C3)C2=O)cs1.O=C(O)C(F)(F)F.O=C(O)C(F)(F)F (stereo not given),-,-,-9.188,-,-
CC(C)Nc1nc(N2CCCC2)nc2c1CN(S(C)(=O)=O)CC2,6.782,-0.7784,-8.431,-8.777,-36.5
O=C(NC1CCCN(c2ccccc2Cl)C1)c1c[nH]nn1 (stereo not given),6.446,3.004,14.58,0.1468,-129.2
CC(C)NC(=O)C1CCC2(CCN(Cc3cnn(C)c3)CC2)C1 (stereo not given),-9.98,1.118,-,1.984,-38.07
COc1ccc(S(=O)(=O)Cc2noc(CC(C)C)n2)cc1,3.926,6.364,2.027,6.762,-19.75

Once more, the final 5:

{"compound": "Cc1nc(CN2CCC3(CCCN(Cc4cnn(C)c4)C3)C2=O)cs1.O=C(O)C(F)(F)F.O=C(O)C(F)(F)F", "stereo": "stereo not given", "Toxoplasma": -9.188}
{"compound": "CC(C)Nc1nc(N2CCCC2)nc2c1CN(S(C)(=O)=O)CC2", "CoaBC": 6.782, "PfKRS1": -0.7784, "Toxoplasma": -8.431, "MtTrpRS": -8.777, "Pks13 thioesterase": -36.5}
{"compound": "O=C(NC1CCCN(c2ccccc2Cl)C1)c1c[nH]nn1", "stereo": "stereo not given", "CoaBC": 6.446, "PfKRS1": 3.004, "Toxoplasma": 14.58, "MtTrpRS": 0.1468, "Pks13 thioesterase": -129.2}
{"compound": "CC(C)NC(=O)C1CCC2(CCN(Cc3cnn(C)c3)CC2)C1", "stereo": "stereo not given", "CoaBC": -9.98, "PfKRS1": 1.118, "MtTrpRS": 1.984, "Pks13 thioesterase": -38.07}
{"compound": "COc1ccc(S(=O)(=O)Cc2noc(CC(C)C)n2)cc1", "CoaBC": 3.926, "PfKRS1": 6.364, "Toxoplasma": 2.027, "MtTrpRS": 6.762, "Pks13 thioesterase": -19.75}